PubChem BioAssay AID2685 (National Center for Advancing Translational Sciences (NCATS), 2010)
Screen size: about 320,000 compounds; about 2,100 (0.66%) were called active. This list was built around the results that the source calls inconclusive (neither active nor inactive); the mix of calls is not that of the screen. Calls follow the shape of the dose curve; as a rule, active = well fitted inhibition curve with a large enough effect in the signal ratio, with a control signal flat (not every such curve was filed as active); inconclusive = small, poorly fitted or top-dose-only effect, or effect the other way, or a change in a side signal; inactive = flat fitted curve, though single readings scatter; the % refers to the signal ratio. Potencies of inconclusive entries are doubtful fits and often do not repeat.

Assay: qHTS Assay for Lipid Storage Modulators in Drosophila S3 Cells
Conditions: BODIPY lipid droplet fluorescence, 18-24 h, cells fed with added oleic acid; lipid storage change, negative = inhibition: at 46.1 µM (top of the series) unless noted
In short: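 Drosophila S3 cells loaded with oleic acid (400 uM, as added) and compounds at several concentrations; lipid droplets imaged by 488-nm laser-scanning cytometry, 500–530 nm intensity and object ratio to cell channel. Percent activity normalized to 20 uM Triacsin C.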
% is scaled to controls: 0 for no effect and ±100 for the full control effect; potency is read from the fitted curve at half-maximal effect.

SMILES | lipid storage change, negative = inhibition | Potency
CCOC(=O)C1=C(N)Oc2cc(O)ccc2C1c1ccc(Br)cc1 (stereo not drawn) | inconclusive: 89.7% | 
Cc1nnc(SCC(=O)Nc2ccc(Cl)cn2)n1Cc1ccccc1 | inconclusive: 11.4% | 
O=C(NC(Cc1c[nH]c2ccccc12)C(=O)O)c1ccc(F)cc1 (stereo not drawn) | inactive | 
COc1ccccc1N1CCN(CC(=O)c2c(C)n(C)c3ccccc23)CC1 |  | inconclusive: 3.66 µM [activator, full curve]
CC(=O)Nc1ccc(NC(=O)CNC(=O)c2cccc(C)c2)cc1 |  | inconclusive: 18.4 µM [activator, partial curve]
Cc1ccc(S(=O)(=O)NCC(=O)OCC(=O)N(C)C2CCS(=O)(=O)C2)cc1 (stereo not drawn) | inconclusive | 
CSc1nc2c(cnn2-c2ccc(C)c(C)c2)c(=O)[nH]1 |  | inconclusive: 0.146 µM [falling, full curve, poor fit]
CSCC[C@H](NC(=O)Cc1c(C)c2c(cc(C)c3c(C)coc32)oc1=O)C(=O)O | inconclusive: 9.82% | 
Cn1cccc1/C=C1\SC(=S)N(NC(=O)c2ccc(Cl)cc2)C1=O |  | inconclusive: 6.51 µM [falling, partial curve, poor fit]
CN1CCN(c2oc(-c3ccccc3F)nc2S(=O)(=O)c2ccc(Cl)cc2)CC1 | inconclusive: 16.5% | 
Cc1cc(Br)ccc1NC(=O)CN(C)C(=O)CSC(=S)N1CCCC1 | inconclusive: -25.8% | 
O=C(Nc1ccc(F)cc1)C1CCN(C(=O)c2ccc(F)cc2)CC1 |  | inconclusive: 3.26 µM [activator, partial curve]
CCOc1cc(C2C(C(=O)c3ccc(C)o3)=C(O)C(=O)N2CCc2ccccc2)ccc1O (stereo not drawn) | inactive | 
CC1CC(=O)Nc2ccccc2N1C(=O)CSc1nnnn1C(C)C (stereo not drawn) | inconclusive: -0.211% | 
Cc1ccc(NC(=O)C(c2ccccc2)c2ccccc2)nc1 | inconclusive: 10.8% | 
Nc1nonc1-n1nnc(C(=O)N/N=C/c2cccc(Cl)c2Cl)c1CN1CCCC1 | inactive | 
COc1ccc(NC(=S)N=Nc2c(O)[nH]c3ccccc23)cc1 | inconclusive: -3.82% | 
Cn1ccc(C(=O)OCC(=O)Nc2ccccc2)n1 | inconclusive: -8.9% | 
CCOc1cc(/C=C/C(=O)c2ccc3c(c2)OCCO3)ccc1OCC(=O)N(C)C | inconclusive: 26.3% | 
COc1ccc(C)cc1NC(=O)CCC(=O)Nc1nnc(C2CCCCC2)s1 | inconclusive: 29.9% | 
Cn1c(=S)[nH]c2[nH]c(=O)cnc2c1=O |  | inconclusive: 1.64 µM [falling, partial curve]
O=C(COC(=O)/C=C/c1ccccc1)NCC1CCCO1 (stereo not drawn) | inconclusive: 11.9% | 
CN(C)CCCN1c2ccccc2Sc2ccc(Cl)cc21 | inconclusive: -10.8% | 
COc1ccc(Cl)cc1NC(=O)Nc1ccc(C(=O)N2CCOCC2)cc1 | inconclusive: -76.2% | 
CC(C)Nc1ccc(C(CC(N)=O)NC(=O)Cc2ccc(Cl)cc2)cc1[N+](=O)[O-] (stereo not drawn) | inactive | 
Cc1cc(NC(=O)Cc2ccccc2[N+](=O)[O-])no1 |  | inconclusive: 29.1 µM [activator, partial curve]

SMILES | lipid storage change, negative = inhibition | Potency
CC(C)N(C(=O)COC(=O)[C@H](C)NC(N)=O)c1ccccc1 | inconclusive: 20.3% | 
Cc1cccc(N=N/C(=C\O)C(=O)c2cccs2)c1 |  | inconclusive: 0.116 µM [rising, single point]
Cn1cc2cccc([N+](=O)[O-])c2n1 | inconclusive: 15.1% | 
COc1ccc(Nc2nnc(SCC(=O)NC3CC3)s2)cc1 | inconclusive: 1.74% | 
Cc1nc2c(C#N)c[nH]n2c(=O)c1CCO | inconclusive: -21% | 
COc1ccc(-n2c(=O)[nH]cc(C(=O)Nc3ccccc3)c2=O)cc1 | inconclusive: 7.59% | 
C=CCNC(=O)COC(=O)c1oc2ccccc2c1CSC1CCCCC1 | inconclusive: -23.4% | 
CN(CC(=O)NCc1ccccc1)Cc1ccc(Cl)cc1 |  | inconclusive: 0.82 µM [activator, full curve]
Cc1ccc(S(=O)(=O)CC(=O)Nc2ccc(S(=O)(=O)Nc3onc(C)c3C)cc2)cc1 |  | inconclusive: 4.61 µM [falling, partial curve, poor fit]
Cc1nn(CC2CC2)c(=O)n1-c1ccc(F)cc1 | inconclusive: 17.4% | 
Cc1sc2nc(SCC(=O)Nc3cccc(C(=O)O)c3)[nH]c(=O)c2c1C |  | inconclusive: 1.46 µM [falling, partial curve, poor fit]
O=C1c2ccccc2S(=O)(=O)N1CC(O)COc1ccc(Cl)cc1 (stereo not drawn) | inconclusive: -74% | 
Cc1ccc(OCC(=O)Nc2ccc(CN3CCOCC3)cc2)cc1 |  | inconclusive: 1.3 µM [activator, full curve, poor fit]
Cc1ccccc1NC(=S)N(CCc1c(C)[nH]c2ccc(F)cc12)Cc1ccncc1 | inconclusive: -15.2% | 
COc1cccc(C(C(=O)NC2CCCC2)N(C(=O)c2ccco2)C2CC2)c1OC (stereo not drawn) | inconclusive: 31.8% | 
Cc1ccc(OCCCC(=O)Nc2nnc(C3CCCO3)s2)c(C)c1 (stereo not drawn) | inconclusive: 23.4% | 
CCCCCNC(=O)Cc1ccc(OC)cc1 | inconclusive: -21.7% | 
COCCNC(=O)CNC(=S)N(CCCN1CCOCC1)Cc1cccs1 | inconclusive: -25.8% | 
CC(=O)c1cccc(NC(=O)NC2CC(=O)N(c3ccc4c(c3)OCCO4)C2)c1 (stereo not drawn) | inconclusive | 
CC(=O)N1CCN(c2nc3cc4c(cc3nc2NS(=O)(=O)c2ccccc2)OCCO4)CC1 | inconclusive: -12.5% | 
NS(=O)(=O)c1ccc(CCNS(=O)(=O)c2ccc(Cl)nc2)cc1 | inconclusive: -15.8% | 
COCC(C)NS(=O)(=O)c1ccc(NC(=O)C(Cc2ccccc2)NC(N)=O)cc1 (stereo not drawn) | inconclusive: 49.9% | 
CCNc1c(NS(=O)(=O)c2ccc(OC)c(Cl)c2)c(=O)oc2ccccc12 |  | inconclusive: 0.731 µM [activator, single point]
CCOc1ccccc1N(CC(=O)Nc1ccc2c(c1)OCCO2)S(C)(=O)=O | inconclusive: 12.9% | 
COc1ccc(C(=O)N(Cc2ccco2)Cc2cccs2)c(O)c1 | inactive | 
COc1ccc(C(=O)NC(=S)Nc2cccc3ncccc23)cc1[N+](=O)[O-] |  | inconclusive: 29.1 µM [falling, single point]

Pulled by structure from the entries so far:
SMILES | lipid storage change, negative = inhibition | Potency
COc1ccc(C(=O)NC(=S)Nc2cccc3ncccc23)cc1[N+](=O)[O-] |  | inconclusive: 29.1 µM [falling, single point]
CC1CC(=O)Nc2ccccc2N1C(=O)CSc1nnnn1C(C)C (stereo not drawn) | inconclusive: -0.211% | 
Cc1ccccc1NC(=S)N(CCc1c(C)[nH]c2ccc(F)cc12)Cc1ccncc1 | inconclusive: -15.2% | 

(more compounds)

SMILES | lipid storage change, negative = inhibition | Potency
COc1nc(OC)nc(N(C)CCO)n1 |  | inconclusive: 5.8 µM [falling, single point]
Cc1cc(N(C)C)nc(SC(C)C)n1 | inconclusive: 47.4% | 
Oc1c(Br)cc(Br)cc1/C=N/NC(=S)N[C@H]1CC2C=CC1C2 (stereo partly drawn) | inconclusive: -37.2% | 
COc1cc(/C=C/C(=O)OCC(=O)N2CCN(S(=O)(=O)c3ccc(C)cc3C)CC2)cc(Cl)c1OC | inconclusive: 25.9% | 
COc1ccc(NC(=O)CCNC(=O)Cn2ccc3ccccc3c2=O)cc1OC | inconclusive: 113% | 
Nc1ccccc1SCC(=O)N1CCc2ccccc21 |  | inconclusive: 18.4 µM [activator, partial curve]
COc1cccc(C(=O)OCC(=O)Nc2ccccc2N2CCOCC2)c1 |  | inconclusive: 4.11 µM [activator, partial curve, poor fit]
CCOc1ccc(CNC(=O)CCCOc2cc(=O)n(C)c3ccccc23)cc1 |  | inconclusive: 0.731 µM [activator, single point]
O=C1COc2ccc(C(=O)COC(=O)c3ccco3)cc2N1 | inconclusive: -21.8% | 
O=C(c1cc2nc(-c3ccc(F)cc3)cc(C(F)(F)F)n2n1)N1CCOCC1 | inconclusive: -30.6% | 
CCC(=O)Nc1ccc(S(=O)(=O)N2CCc3ccccc3C2)cc1 |  | inconclusive: 0.092 µM [activator, full curve, poor fit]
Cc1ccc(C(=O)c2cn[nH]c2-c2ccccc2O)cc1 | inconclusive: -25.4% | 
Cc1ccc2c(c1)-n1c(nc3cc(F)ccc3c1=O)C(Cc1ccccc1)NC2=O (stereo not drawn) | inconclusive: 1.72% | 
O=C1c2ccccc2NC(c2ccc(O)c(O)c2)N1c1ccccc1Cl (stereo not drawn) | inconclusive: 126% | 
CC1CCN(S(=O)(=O)N2CCN(C(=O)c3ccc4c(c3)OCO4)CC2)CC1 | inconclusive: -8.2% | 
CC(C)Cc1ccc(C#N)c(SCC(N)=O)n1 |  | inconclusive: 1.46 µM [activator, partial curve]
COc1ccc(CCNC(=O)CCS(=O)(=O)c2ccc3nc(C)sc3c2)cc1OC |  | inconclusive: 0.461 µM [activator, partial curve, poor fit]
CCOc1ccc(CCNC(=O)C2CCCN(c3nn4c(=O)cc(C)nc4s3)C2)cc1 (stereo not drawn) |  | inconclusive: 3.26 µM [activator, full curve]
O=C(CCc1c[nH]c2ccccc12)N1CCN(c2ccc(O)cc2)CC1 | inconclusive: -24.8% | 
C=CCn1c(CCC(O)CCCCC)n[nH]c1=S (stereo not drawn) |  | inconclusive: 1.84 µM [activator, partial curve]
COc1ccccc1N1CCN(C(=O)c2cc3c(s2)-c2ccccc2OC3)CC1 |  | inconclusive: 11.6 µM [falling, single point]
Cc1ccc(C)c(N2CCN(CC3CC=CCC3)CC2)c1 (stereo not drawn) | inconclusive: -12.3% | 
CC(C)(C)C(=O)O/N=C(\N)c1ccc(Oc2cc(Cl)cc(Cl)c2)c([N+](=O)[O-])c1 | inconclusive: -15.1% | 
CCOC(=O)Nc1ccc2c(CN3CCC(C(=O)OC)CC3)cc(=O)oc2c1 | inconclusive: 17.6% | 
Cc1ccc(S(=O)(=O)Nc2cc(-c3ccc(Cl)cc3)nn2C)cc1 | inconclusive: 3.59% | 
Cc1ccccc1C(=O)N1CCC(C(=O)Nc2cc(C(F)(F)F)ccc2N2CCCC2)CC1 |  | inconclusive: 0.58 µM [falling, partial curve, poor fit]
